Laboratory results taken from PubChem BioAssay (NCATS).
Inconclusive means that the source gave no clear call. Such entries were picked first, then a sample of the others. Potencies beside an inconclusive call are fits to weak or partial responses and may not hold up. The source made the active and inactive calls. Calls follow the shape of the dose curve; as a rule, active = well fitted curve in the direction sought with a large enough effect; inconclusive = small, poorly fitted or top-dose-only effect, or another doubt; inactive = no such curve, though single readings can be large; an effect the other way counts as inactive or inconclusive.

Experiment: Identifying Small Molecule Inhibitors of Pancreatic Cancer Stem Cells (SN12C, Adherent) (AID 1259358);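 also: cell survival measured after 48 h of compound exposure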
Conditions: viability/growth inhibition; series mostly up to 46.1 µM
In short: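 Adherent (2D) versus sphere (3D) formats; spheres generated 14 d in SCM beforehand. Compound transferred by pin tool after 4 h, 48 h incubation, CellTiter-Glo endpoint.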
Potency is read from the fitted curve at half-maximal effect.

SMILES	Potency
Cc1cc(Nc2cc(N3CCN(C)CC3)nc(C=Cc3ccccc3)n2)n[nH]1	inconclusive: 5.26 µM [cytotoxic, partial curve]
CC(C)C[C@H](NC(=O)c1cc2ccccc2s1)C(=O)N1CCN(C(=O)[C@H](CO)NS(=O)(=O)c2ccc(Cl)cc2Cl)CC1	inconclusive: 29.6 µM [cytotoxic, single point]
Cn1cc(-c2[nH]c3cc(NC(=O)[C@H](N)C4CCCCC4)cc4c3c2C=NNC4=O)cn1	active: 14.8 µM
O=C1[C@H](Cc2ccc(O)cc2)N2C(=O)CCN(C(=O)NCc3ccccc3)[C@H]2CN1Cc1cccc2ccccc12	active: 16.6 µM
Nc1ccccc1NC(=O)c1ccc(CNc2nccc(-c3cccnc3)n2)cc1	inconclusive: 16.6 µM [cytotoxic, partial curve]
CC(C)CC(=O)Nc1n[nH]c2c1CN(C(=O)C1CCN(C)CC1)C2(C)C	inconclusive: 3.72 µM [cytotoxic, full curve]
COc1ccc(OC)c(-c2nnc3ccc(-c4ccc(OC)c(O[C@@H]5CCOC5)c4)nn23)c1	active: 20.9 µM
Cc1ccc(NC(=O)c2ccc(CN3CCN(C)CC3)cc2)cc1Nc1nc(-c2cccnc2)cs1	inactive
C=CCn1c(=O)c2cnc(Nc3ccc(N4CCN(C)CC4)cc3)nc2n1-c1cccc(C(C)(C)O)n1	inconclusive: 4.69 µM [cytotoxic, partial curve]
COc1cc(Nc2ncc3c(n2)-c2ccc(Cl)cc2C(c2c(F)cccc2OC)=NC3)ccc1C(=O)O	inconclusive: 20.9 µM [cytotoxic, single point]
COc1ccc(-c2ccc3c(N4CCOC[C@H]4C)nc(N4CCOC[C@H]4C)nc3n2)cc1CO	active: 0.0148 µM

Experiment: Identifying Small Molecule Inhibitors of Pancreatic Cancer Stem Cells (Panc1, Spheroid) (AID 1259359);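 also: compound exposure lasted 48 h before reading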
Conditions: Panc1 spheroid cancer stem cell viability; series mostly up to 46.1 µM
In short: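 Monolayer and spheroid cultures are compared. Spheroids form over 14 days in stem cell medium on hydrogel-coated low-attachment plates, then are exposed to compound for 48 h before CellTiter-Glo luminescence.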

SMILES	Potency
Cc1cc(Nc2cc(N3CCN(C)CC3)nc(C=Cc3ccccc3)n2)n[nH]1	inconclusive: 37.2 µM [cytotoxic, single point]
CC(C)C[C@H](NC(=O)c1cc2ccccc2s1)C(=O)N1CCN(C(=O)[C@H](CO)NS(=O)(=O)c2ccc(Cl)cc2Cl)CC1	inconclusive: 37.2 µM [cytotoxic, partial curve, poor fit]
Cn1cc(-c2[nH]c3cc(NC(=O)[C@H](N)C4CCCCC4)cc4c3c2C=NNC4=O)cn1	inconclusive: 0.372 µM [cytotoxic, full curve, poor fit]
O=C1[C@H](Cc2ccc(O)cc2)N2C(=O)CCN(C(=O)NCc3ccccc3)[C@H]2CN1Cc1cccc2ccccc12	inconclusive: 5.26 µM [cytotoxic, full curve]
Nc1ccccc1NC(=O)c1ccc(CNc2nccc(-c3cccnc3)n2)cc1	inconclusive: 9.35 µM [cytotoxic, full curve, poor fit]
CC(C)CC(=O)Nc1n[nH]c2c1CN(C(=O)C1CCN(C)CC1)C2(C)C	inconclusive: 16.6 µM [cytotoxic, partial curve, poor fit]
COc1ccc(OC)c(-c2nnc3ccc(-c4ccc(OC)c(O[C@@H]5CCOC5)c4)nn23)c1	inconclusive: 5.26 µM [cytotoxic, full curve, poor fit]
Cc1ccc(NC(=O)c2ccc(CN3CCN(C)CC3)cc2)cc1Nc1nc(-c2cccnc2)cs1	inconclusive: 3.72 µM [cytotoxic, partial curve, poor fit]
C=CCn1c(=O)c2cnc(Nc3ccc(N4CCN(C)CC4)cc3)nc2n1-c1cccc(C(C)(C)O)n1	active: 0.418 µM
COc1cc(Nc2ncc3c(n2)-c2ccc(Cl)cc2C(c2c(F)cccc2OC)=NC3)ccc1C(=O)O	inconclusive: 0.0021 µM [cytotoxic, full curve, poor fit]
COc1ccc(-c2ccc3c(N4CCOC[C@H]4C)nc(N4CCOC[C@H]4C)nc3n2)cc1CO	inconclusive: 1.05 µM [cytotoxic, full curve, poor fit]

Experiment: Identifying Small Molecule Inhibitors of Pancreatic Cancer Stem Cells (SN12C, Spheroid) (AID 1259360)
Conditions: Potency: SN12C spheroid viability; series mostly up to 46.1 µM
In short: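 Cytotoxicity read by CellTiter-Glo luminescence after 48 h compound exposure at 37C; percent activity scaled between DMSO-treated cells and cell-free wells. Spheroid formats used cells pre-formed 14 days in stem cell media on hydrogel.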

SMILES	Potency
Cc1cc(Nc2cc(N3CCN(C)CC3)nc(C=Cc3ccccc3)n2)n[nH]1	inactive
CC(C)C[C@H](NC(=O)c1cc2ccccc2s1)C(=O)N1CCN(C(=O)[C@H](CO)NS(=O)(=O)c2ccc(Cl)cc2Cl)CC1	inconclusive: 33.2 µM [cytotoxic, single point]
Cn1cc(-c2[nH]c3cc(NC(=O)[C@H](N)C4CCCCC4)cc4c3c2C=NNC4=O)cn1	active: 4.18 µM
O=C1[C@H](Cc2ccc(O)cc2)N2C(=O)CCN(C(=O)NCc3ccccc3)[C@H]2CN1Cc1cccc2ccccc12	active: 20.9 µM
Nc1ccccc1NC(=O)c1ccc(CNc2nccc(-c3cccnc3)n2)cc1	inconclusive: 16.6 µM [cytotoxic, partial curve]
CC(C)CC(=O)Nc1n[nH]c2c1CN(C(=O)C1CCN(C)CC1)C2(C)C	inconclusive: 13.2 µM [cytotoxic, partial curve]
COc1ccc(OC)c(-c2nnc3ccc(-c4ccc(OC)c(O[C@@H]5CCOC5)c4)nn23)c1	active: 18.7 µM
Cc1ccc(NC(=O)c2ccc(CN3CCN(C)CC3)cc2)cc1Nc1nc(-c2cccnc2)cs1	inconclusive: 29.6 µM [cytotoxic, partial curve, poor fit]
C=CCn1c(=O)c2cnc(Nc3ccc(N4CCN(C)CC4)cc3)nc2n1-c1cccc(C(C)(C)O)n1	active: 1.66 µM
COc1cc(Nc2ncc3c(n2)-c2ccc(Cl)cc2C(c2c(F)cccc2OC)=NC3)ccc1C(=O)O	inactive
COc1ccc(-c2ccc3c(N4CCOC[C@H]4C)nc(N4CCOC[C@H]4C)nc3n2)cc1CO	inconclusive: 0.0296 µM [cytotoxic, partial curve, poor fit]
